# The other results are listed elsewhere or left out.
# B1: CcfD (Bacteroides fragilis), Q5L9G4 (protein)
# chain: MKKQNSIYTLLIALLCFVSSCDYLGVSDQLAGGLQNTEQVFDNVSYTKRWYANVFAGIPDYSGINSVNVGAFKNPWTGMCDELVVGYGNSSKYNNSDRNAANMGFHRYGDCYKYIRQANIFLQKAHPIMTTGTQGDQLLEDELTQMKANVRFMRAFYHYLLFEQYGPIILVKDKIYNATEDQDVPRNTVDEVIEYIDSELTAVASELTQEPIFEDKDYRAWPTKGVALAVRAKLWLYAASPLLNGGYREALSVTNPDGTRLFPDYDAGKWEKALAACKDFIDYAEAGRYELYKEYKDDNGAVIDPDKSVYNLFQKYTHEIIWATANNDWGGMNGDAFDRRIAPRCEKNGLGSTGVTQELVDAFYMKDGFPVSATAYLPQSTLYQEEGYGTYKDQNDNFSKKYTNVTVSNRYLNREPRFYNTVFFNGRQWPVSCNQVLFYNGGNSGVQEGQATLTGYMLFKRFNRSVSLTNPGVASQFRPSIIFRLADFYLMYAEAANEVNPNDARVLKYLNLVRERAGLPDIETLNPAIRGNQELQRAAIQRERQIELATEGQRYFDVRRWMIADKNGEGRQNGYVHGMNVRGESNDKEDFNRIVEASQIVFNRKMYLYPMPDSEMRKTKNLVQNPGW
# How the values were obtained:
# Experiment in all cases: glycan array binding signal (z-score within array); higher = stronger binding
# Details in all cases: glycan notation: IUPAC condensed, linker removed
# [1] = target: Gal(b1-4)GlcNAc(b1-3)Gal(b1-4)GlcNAc(b1-2)Man(a1-3)[Gal(b1-4)GlcNAc(b1-3)Gal(b1-4)GlcNAc(b1-2)Man(a1-6)]Man(b1-4)GlcNAc(b1-4)[Fuc(a1-6)]GlcNAc
# Method in brief: (§1)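 From the Consortium for Functional Glycomics database, 3228 arrays were curated, keeping only those whose protein sequence was available. Binding is given as a within-array Z-score averaged across arrays sharing a protein sequence and across linkers. Negative Z-scores can be read as non-binding.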
# [2] = target: Gal(b1-4)GlcNAc(b1-3)Gal(b1-4)GlcNAc(b1-2)[Gal(b1-4)GlcNAc(b1-3)Gal(b1-4)GlcNAc(b1-6)]Man(a1-6)[Gal(b1-4)GlcNAc(b1-3)Gal(b1-4)GlcNAc(b1-2)Man(a1-3)]Man(b1-4)GlcNAc(b1-4)GlcNAc
# Method in brief: as §1
# [3] = target: Gal(b1-4)GlcNAc(b1-3)Gal(b1-4)GlcNAc(b1-2)[Gal(b1-4)GlcNAc(b1-3)Gal(b1-4)GlcNAc(b1-6)]Man(a1-6)[Gal(b1-4)GlcNAc(b1-3)Gal(b1-4)GlcNAc(b1-2)Man(a1-3)]Man(b1-4)GlcNAc(b1-4)[Fuc(a1-6)]GlcNAc
# Method in brief: as §1
# [4] = target: Gal(b1-4)GlcNAc(b1-3)Gal(b1-4)GlcNAc(b1-3)Gal(b1-4)GlcNAc
# Method in brief: as §1
# [5] = target: Gal(b1-4)GlcNAc(b1-3)Gal(b1-4)GlcNAc(b1-3)Gal(b1-4)GlcNAc(b1-2)Man(a1-3)[Gal(b1-4)GlcNAc(b1-3)Gal(b1-4)GlcNAc(b1-3)Gal(b1-4)GlcNAc(b1-2)Man(a1-6)]Man(b1-4)GlcNAc(b1-4)GlcNAc
# Method in brief: as §1
# [6] = target: Gal(b1-4)GlcNAc(b1-3)Gal(b1-4)GlcNAc(b1-3)Gal(b1-4)GlcNAc(b1-2)Man(a1-3)[Gal(b1-4)GlcNAc(b1-3)Gal(b1-4)GlcNAc(b1-3)Gal(b1-4)GlcNAc(b1-2)Man(a1-6)]Man(b1-4)GlcNAc(b1-4)[Fuc(a1-6)]GlcNAc
# Method in brief: as §1
# [7] = target: Gal(b1-4)GlcNAc(b1-3)Gal(b1-4)GlcNAc(b1-3)Gal(b1-4)GlcNAc(b1-2)[Gal(b1-4)GlcNAc(b1-3)Gal(b1-4)GlcNAc(b1-3)Gal(b1-4)GlcNAc(b1-6)]Man(a1-6)[Gal(b1-4)GlcNAc(b1-3)Gal(b1-4)GlcNAc(b1-3)Gal(b1-4)GlcNAc(b1-2)Man(a1-3)]Man(b1-4)GlcNAc(b1-4)[Fuc(a1-6)]GlcNAc
# Method in brief: as §1
# [8] = target: Gal(b1-4)GlcNAc(b1-3)Gal(b1-4)GlcNAc(b1-3)Gal(b1-4)GlcNAc(b1-3)Gal(b1-4)GlcNAc(b1-2)Man(a1-3)[Gal(b1-4)GlcNAc(b1-3)Gal(b1-4)GlcNAc(b1-3)Gal(b1-4)GlcNAc(b1-3)Gal(b1-4)GlcNAc(b1-2)Man(a1-6)]Man(b1-4)GlcNAc(b1-4)GlcNAc
# Method in brief: as §1
# [9] = target: Gal(b1-4)GlcNAc(b1-3)Gal(b1-4)GlcNAc(b1-3)Gal(b1-4)GlcNAc(b1-3)Gal(b1-4)GlcNAc(b1-2)Man(a1-3)[Gal(b1-4)GlcNAc(b1-3)Gal(b1-4)GlcNAc(b1-3)Gal(b1-4)GlcNAc(b1-3)Gal(b1-4)GlcNAc(b1-2)Man(a1-6)]Man(b1-4)GlcNAc(b1-4)[Fuc(a1-6)]GlcNAc
# Method in brief: as §1
# [10] = target: Gal(b1-4)GlcNAc(b1-3)Gal(b1-4)GlcNAc(b1-3)Gal(b1-4)GlcNAc(b1-3)Gal(b1-4)GlcNAc(b1-2)[Gal(b1-4)GlcNAc(b1-3)Gal(b1-4)GlcNAc(b1-3)Gal(b1-4)GlcNAc(b1-3)Gal(b1-4)GlcNAc(b1-6)]Man(a1-6)[Gal(b1-4)GlcNAc(b1-3)Gal(b1-4)GlcNAc(b1-3)Gal(b1-4)GlcNAc(b1-3)Gal(b1-4)GlcNAc(b1-2)Man(a1-3)]Man(b1-4)GlcNAc(b1-4)[Fuc(a1-6)]GlcNAc
# Method in brief: as §1
# [11] = target: Gal(b1-4)GlcNAc(b1-3)Gal(b1-4)GlcNAc(b1-3)Gal(b1-4)GlcNAc(b1-3)Gal(b1-4)GlcNAc(b1-3)Gal(b1-4)GlcNAc(b1-2)Man(a1-3)[Gal(b1-4)GlcNAc(b1-3)Gal(b1-4)GlcNAc(b1-3)Gal(b1-4)GlcNAc(b1-3)Gal(b1-4)GlcNAc(b1-3)Gal(b1-4)GlcNAc(b1-2)Man(a1-6)]Man(b1-4)GlcNAc(b1-4)GlcNAc
# Method in brief: as §1
# [12] = target: Gal(b1-4)GlcNAc(b1-3)Gal(b1-4)GlcNAc(b1-3)Gal(b1-4)GlcNAc(b1-3)Gal(b1-4)GlcNAc(b1-3)Gal(b1-4)GlcNAc(b1-2)Man(a1-3)[Gal(b1-4)GlcNAc(b1-3)Gal(b1-4)GlcNAc(b1-3)Gal(b1-4)GlcNAc(b1-3)Gal(b1-4)GlcNAc(b1-3)Gal(b1-4)GlcNAc(b1-2)Man(a1-6)]Man(b1-4)GlcNAc(b1-4)[Fuc(a1-6)]GlcNAc
# Method in brief: as §1
# [13] = target: Gal(b1-4)GlcNAc(b1-3)Gal(b1-4)GlcNAc(b1-3)Gal(b1-4)GlcNAc(b1-3)Gal(b1-4)GlcNAc(b1-3)Gal(b1-4)GlcNAc(b1-2)[Gal(b1-4)GlcNAc(b1-3)Gal(b1-4)GlcNAc(b1-3)Gal(b1-4)GlcNAc(b1-3)Gal(b1-4)GlcNAc(b1-3)Gal(b1-4)GlcNAc(b1-6)]Man(a1-6)[Gal(b1-4)GlcNAc(b1-3)Gal(b1-4)GlcNAc(b1-3)Gal(b1-4)GlcNAc(b1-3)Gal(b1-4)GlcNAc(b1-3)Gal(b1-4)GlcNAc(b1-2)Man(a1-3)]Man(b1-4)GlcNAc(b1-4)[Fuc(a1-6)]GlcNAc
# Method in brief: as §1
# [14] = target: Gal(b1-4)GlcNAc(b1-3)Gal(b1-4)GlcNAc(b1-3)Gal(b1-4)GlcNAc(b1-3)Gal(b1-4)GlcNAc(b1-3)Gal(b1-4)GlcNAc(b1-3)Gal(b1-4)GlcNAc(b1-2)Man(a1-3)[Gal(b1-4)GlcNAc(b1-3)Gal(b1-4)GlcNAc(b1-3)Gal(b1-4)GlcNAc(b1-3)Gal(b1-4)GlcNAc(b1-3)Gal(b1-4)GlcNAc(b1-3)Gal(b1-4)GlcNAc(b1-2)Man(a1-6)]Man(b1-4)GlcNAc(b1-4)GlcNAc
# Method in brief: as §1
# [15] = target: Gal(b1-4)GlcNAc(b1-3)Gal(b1-4)GlcNAc(b1-3)GalNAc
# Method in brief: as §1
# [16] = target: Gal(b1-4)GlcNAc(b1-3)Gal(b1-4)GlcNAc(b1-3)[Gal(b1-4)GlcNAc(b1-3)Gal(b1-4)GlcNAc(b1-6)]GalNAc
# Method in brief: as §1
# [17] = target: Gal(b1-4)GlcNAc(b1-3)Gal(b1-4)GlcNAc(b1-6)[Gal(b1-3)]GalNAc
# Method in brief: as §1
# [18] = target: Gal(b1-4)GlcNAc(b1-3)Gal(b1-4)[Fuc(a1-3)]GlcNAc(b1-3)Gal(b1-4)[Fuc(a1-3)]GlcNAc
# Method in brief: as §1
# [19] = target: Gal(b1-4)GlcNAc(b1-3)GalNAc
# Method in brief: as §1
# [20] = target: Gal(b1-4)GlcNAc(b1-3)[Fuc(a1-3)GlcNAc(b1-6)]Gal(b1-4)Glc
# Method in brief: as §1
# [21] = target: Gal(b1-4)GlcNAc(b1-3)[Gal(b1-4)GlcNAc(b1-6)]Gal(b1-4)GlcNAc
# Method in brief: as §1
# [22] = target: Gal(b1-4)GlcNAc(b1-3)[GlcNAc(b1-6)]Gal(b1-4)GlcNAc
# Method in brief: as §1
# [23] = target: Gal(b1-4)GlcNAc(b1-6)Gal(b1-4)GlcNAc
# Method in brief: as §1
# [24] = target: Gal(b1-4)GlcNAc(b1-6)GalNAc
# Method in brief: as §1
# [25] = target: Gal(b1-4)GlcNAc(b1-6)[Gal(b1-3)]GalNAc
# Method in brief: as §1
# [26] = target: Gal(b1-4)GlcNAc(b1-6)[Gal(b1-4)GlcNAc(b1-3)]GalNAc
# Method in brief: as §1
# Gal(b1-4)GlcNAc6P = target: Gal(b1-4)GlcNAc6P
# Method in brief: as §1
# Gal(b1-6)Gal = target: Gal(b1-6)Gal
# Method in brief: as §1
# Gal3S(b1-3)GalNAc = target: Gal3S(b1-3)GalNAc
# Method in brief: as §1
# Gal3S(b1-3)GlcNAc = target: Gal3S(b1-3)GlcNAc
# Method in brief: as §1
binder,measurement,setting,value
B1,glycan array binding signal (z-score),[1],1.5
same,glycan array binding signal (z-score),[2],0.956
same,glycan array binding signal (z-score),[3],1.7
same,glycan array binding signal (z-score),[4],-0.896
same,glycan array binding signal (z-score),[5],2.2
same,glycan array binding signal (z-score),[6],1.57
same,glycan array binding signal (z-score),[7],2.18
same,glycan array binding signal (z-score),[8],0.929
same,glycan array binding signal (z-score),[9],0.43
same,glycan array binding signal (z-score),[10],0.049
same,glycan array binding signal (z-score),[11],0.095
same,glycan array binding signal (z-score),[12],0.831
same,glycan array binding signal (z-score),[13],-0.319
same,glycan array binding signal (z-score),[14],-1.11
same,glycan array binding signal (z-score),[15],0.43
same,glycan array binding signal (z-score),[16],-0.148
same,glycan array binding signal (z-score),[17],1.46
same,glycan array binding signal (z-score),[18],-0.864
same,glycan array binding signal (z-score),[19],-0.998
same,glycan array binding signal (z-score),[20],-0.069
same,glycan array binding signal (z-score),[21],-0.726
same,glycan array binding signal (z-score),[22],-0.91
same,glycan array binding signal (z-score),[23],-0.87
same,glycan array binding signal (z-score),[24],-1.03
same,glycan array binding signal (z-score),[25],0.499
same,glycan array binding signal (z-score),[26],-0.499
same,glycan array binding signal (z-score),Gal(b1-4)GlcNAc6P,-0.24
same,glycan array binding signal (z-score),Gal(b1-6)Gal,-0.969
same,glycan array binding signal (z-score),Gal3S(b1-3)GalNAc,0.942
same,glycan array binding signal (z-score),Gal3S(b1-3)GlcNAc,0.059

# Retrieved one by one from the list above:
binder,measurement,setting,value
B1,glycan array binding signal (z-score),[7],2.18
same,glycan array binding signal (z-score),[8],0.929
